From the supplement of paper PMC7666118
This is one part of the list.

The chains behind the UniProt entries cited, without tags or fusion partners. Where a name states a change or a piece, a line headed by the entry shows the natural chain unless it says otherwise.
UniProt O15212, whole entry: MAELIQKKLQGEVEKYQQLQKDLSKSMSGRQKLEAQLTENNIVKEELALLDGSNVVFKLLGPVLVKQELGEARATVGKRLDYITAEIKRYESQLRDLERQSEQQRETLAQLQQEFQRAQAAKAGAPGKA
UniProt Q96GD0: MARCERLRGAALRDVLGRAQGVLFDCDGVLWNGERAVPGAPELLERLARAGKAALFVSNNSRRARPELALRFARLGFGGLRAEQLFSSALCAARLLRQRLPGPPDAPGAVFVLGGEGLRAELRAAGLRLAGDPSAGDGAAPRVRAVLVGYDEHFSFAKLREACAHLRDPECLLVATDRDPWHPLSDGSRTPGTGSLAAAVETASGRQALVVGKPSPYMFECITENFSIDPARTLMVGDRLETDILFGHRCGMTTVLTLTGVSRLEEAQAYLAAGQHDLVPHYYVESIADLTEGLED
UniProt Q15366, whole entry: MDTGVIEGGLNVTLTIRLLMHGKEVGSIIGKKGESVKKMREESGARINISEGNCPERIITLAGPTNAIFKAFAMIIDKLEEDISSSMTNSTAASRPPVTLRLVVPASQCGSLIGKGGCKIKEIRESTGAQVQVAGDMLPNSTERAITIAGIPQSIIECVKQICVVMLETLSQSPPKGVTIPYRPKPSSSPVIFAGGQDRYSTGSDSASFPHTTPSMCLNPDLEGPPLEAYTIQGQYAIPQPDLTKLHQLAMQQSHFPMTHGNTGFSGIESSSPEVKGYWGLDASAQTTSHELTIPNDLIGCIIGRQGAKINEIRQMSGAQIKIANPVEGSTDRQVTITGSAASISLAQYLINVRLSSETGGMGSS
UniProt Q13608: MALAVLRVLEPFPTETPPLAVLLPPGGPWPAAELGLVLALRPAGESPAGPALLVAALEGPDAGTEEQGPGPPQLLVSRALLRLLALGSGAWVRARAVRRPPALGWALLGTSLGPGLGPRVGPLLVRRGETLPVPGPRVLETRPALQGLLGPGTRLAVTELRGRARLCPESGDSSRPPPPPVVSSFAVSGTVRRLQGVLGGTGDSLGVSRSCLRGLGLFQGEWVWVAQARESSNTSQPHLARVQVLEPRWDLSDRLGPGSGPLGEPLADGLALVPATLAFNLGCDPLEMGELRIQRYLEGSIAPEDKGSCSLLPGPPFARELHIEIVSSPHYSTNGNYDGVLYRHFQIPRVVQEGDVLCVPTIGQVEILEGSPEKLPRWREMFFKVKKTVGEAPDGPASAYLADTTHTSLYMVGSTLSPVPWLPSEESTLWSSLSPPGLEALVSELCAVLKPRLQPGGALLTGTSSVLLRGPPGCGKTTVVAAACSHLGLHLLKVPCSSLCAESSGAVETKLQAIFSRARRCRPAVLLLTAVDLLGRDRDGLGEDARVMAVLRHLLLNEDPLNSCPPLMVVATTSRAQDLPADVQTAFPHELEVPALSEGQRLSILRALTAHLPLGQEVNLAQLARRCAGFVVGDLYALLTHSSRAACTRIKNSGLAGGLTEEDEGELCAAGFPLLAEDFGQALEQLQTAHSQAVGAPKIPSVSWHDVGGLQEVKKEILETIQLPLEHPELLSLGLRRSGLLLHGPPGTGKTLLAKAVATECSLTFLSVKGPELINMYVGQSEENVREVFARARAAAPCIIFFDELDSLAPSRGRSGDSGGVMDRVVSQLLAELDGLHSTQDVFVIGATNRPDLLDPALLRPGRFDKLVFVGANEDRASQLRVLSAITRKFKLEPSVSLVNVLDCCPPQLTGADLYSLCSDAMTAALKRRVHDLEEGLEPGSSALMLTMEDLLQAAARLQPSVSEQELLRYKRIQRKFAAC
UniProt O75340: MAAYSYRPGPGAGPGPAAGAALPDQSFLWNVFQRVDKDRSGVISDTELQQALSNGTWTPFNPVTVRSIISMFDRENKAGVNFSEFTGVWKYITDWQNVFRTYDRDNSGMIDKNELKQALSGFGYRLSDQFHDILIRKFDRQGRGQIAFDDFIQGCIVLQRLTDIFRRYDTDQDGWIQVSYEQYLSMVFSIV
UniProt P08559, whole entry: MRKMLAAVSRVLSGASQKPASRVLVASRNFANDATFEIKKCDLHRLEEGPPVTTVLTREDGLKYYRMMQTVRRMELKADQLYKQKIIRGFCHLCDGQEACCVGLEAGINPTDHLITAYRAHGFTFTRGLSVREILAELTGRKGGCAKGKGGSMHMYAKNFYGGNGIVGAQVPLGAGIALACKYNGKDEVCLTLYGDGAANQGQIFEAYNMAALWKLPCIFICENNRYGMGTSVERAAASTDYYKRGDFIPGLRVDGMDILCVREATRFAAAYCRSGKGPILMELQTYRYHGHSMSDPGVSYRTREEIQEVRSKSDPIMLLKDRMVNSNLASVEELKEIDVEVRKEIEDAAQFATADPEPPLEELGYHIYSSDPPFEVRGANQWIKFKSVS
UniProt Q16512: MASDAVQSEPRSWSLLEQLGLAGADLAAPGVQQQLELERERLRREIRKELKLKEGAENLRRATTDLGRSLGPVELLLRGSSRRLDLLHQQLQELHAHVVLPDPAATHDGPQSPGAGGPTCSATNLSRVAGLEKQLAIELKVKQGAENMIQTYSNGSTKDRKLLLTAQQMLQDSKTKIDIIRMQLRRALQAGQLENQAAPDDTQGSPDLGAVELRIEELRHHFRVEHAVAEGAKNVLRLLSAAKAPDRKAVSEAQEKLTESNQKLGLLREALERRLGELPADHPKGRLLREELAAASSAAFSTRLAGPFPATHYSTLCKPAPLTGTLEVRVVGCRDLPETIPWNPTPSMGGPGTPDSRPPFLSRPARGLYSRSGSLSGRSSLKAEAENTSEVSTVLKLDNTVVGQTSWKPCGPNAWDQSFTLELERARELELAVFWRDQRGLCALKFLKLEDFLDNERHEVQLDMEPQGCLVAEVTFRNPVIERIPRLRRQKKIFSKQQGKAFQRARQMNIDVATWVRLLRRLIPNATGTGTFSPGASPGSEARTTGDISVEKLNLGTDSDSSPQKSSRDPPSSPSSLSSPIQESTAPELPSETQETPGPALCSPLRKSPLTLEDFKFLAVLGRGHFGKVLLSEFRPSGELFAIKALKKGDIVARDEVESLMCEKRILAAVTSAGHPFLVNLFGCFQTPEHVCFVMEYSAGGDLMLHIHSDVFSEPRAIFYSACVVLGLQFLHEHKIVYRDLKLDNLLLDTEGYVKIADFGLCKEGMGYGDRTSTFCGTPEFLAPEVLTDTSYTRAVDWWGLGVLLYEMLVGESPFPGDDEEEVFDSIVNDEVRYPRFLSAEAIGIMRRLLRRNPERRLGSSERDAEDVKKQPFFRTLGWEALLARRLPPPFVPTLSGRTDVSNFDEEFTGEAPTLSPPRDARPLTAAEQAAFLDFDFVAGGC
UniProt Q9BZF3: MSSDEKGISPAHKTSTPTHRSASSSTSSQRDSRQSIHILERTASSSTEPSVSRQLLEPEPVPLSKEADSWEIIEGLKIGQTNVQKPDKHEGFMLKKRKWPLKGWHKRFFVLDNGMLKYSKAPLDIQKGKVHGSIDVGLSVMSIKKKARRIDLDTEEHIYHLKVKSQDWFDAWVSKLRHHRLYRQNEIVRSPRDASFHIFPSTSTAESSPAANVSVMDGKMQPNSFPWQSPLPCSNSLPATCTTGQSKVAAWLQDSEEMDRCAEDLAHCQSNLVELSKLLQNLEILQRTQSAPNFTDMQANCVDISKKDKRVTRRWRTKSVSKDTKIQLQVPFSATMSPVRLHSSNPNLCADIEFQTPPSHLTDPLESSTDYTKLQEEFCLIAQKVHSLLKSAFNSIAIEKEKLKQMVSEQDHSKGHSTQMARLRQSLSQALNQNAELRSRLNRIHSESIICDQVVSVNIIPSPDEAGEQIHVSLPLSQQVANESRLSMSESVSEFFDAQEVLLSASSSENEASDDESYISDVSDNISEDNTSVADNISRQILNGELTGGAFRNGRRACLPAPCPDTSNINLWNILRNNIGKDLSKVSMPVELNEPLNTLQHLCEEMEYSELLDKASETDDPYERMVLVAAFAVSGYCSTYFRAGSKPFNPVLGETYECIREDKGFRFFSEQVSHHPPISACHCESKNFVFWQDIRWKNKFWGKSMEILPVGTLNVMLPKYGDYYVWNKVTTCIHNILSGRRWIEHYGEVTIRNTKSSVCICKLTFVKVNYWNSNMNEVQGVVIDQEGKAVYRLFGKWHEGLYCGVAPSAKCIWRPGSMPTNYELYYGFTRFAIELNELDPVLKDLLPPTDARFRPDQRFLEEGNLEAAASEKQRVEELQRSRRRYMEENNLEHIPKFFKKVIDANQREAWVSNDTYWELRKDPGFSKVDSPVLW
UniProt Q9BRP1: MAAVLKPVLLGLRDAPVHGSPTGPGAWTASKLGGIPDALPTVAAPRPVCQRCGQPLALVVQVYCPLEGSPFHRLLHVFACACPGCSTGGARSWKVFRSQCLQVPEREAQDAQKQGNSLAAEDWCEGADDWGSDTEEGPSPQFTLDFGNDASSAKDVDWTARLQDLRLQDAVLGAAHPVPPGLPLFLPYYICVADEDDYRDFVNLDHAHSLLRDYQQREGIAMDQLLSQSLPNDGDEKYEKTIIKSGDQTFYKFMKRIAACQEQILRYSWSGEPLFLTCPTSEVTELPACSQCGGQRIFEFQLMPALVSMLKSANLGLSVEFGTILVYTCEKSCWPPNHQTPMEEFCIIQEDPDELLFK
UniProt Q7RTV0, whole entry, looked up: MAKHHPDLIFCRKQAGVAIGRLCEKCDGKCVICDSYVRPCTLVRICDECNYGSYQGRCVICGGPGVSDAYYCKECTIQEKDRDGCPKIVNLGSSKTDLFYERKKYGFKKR
UniProt P51003: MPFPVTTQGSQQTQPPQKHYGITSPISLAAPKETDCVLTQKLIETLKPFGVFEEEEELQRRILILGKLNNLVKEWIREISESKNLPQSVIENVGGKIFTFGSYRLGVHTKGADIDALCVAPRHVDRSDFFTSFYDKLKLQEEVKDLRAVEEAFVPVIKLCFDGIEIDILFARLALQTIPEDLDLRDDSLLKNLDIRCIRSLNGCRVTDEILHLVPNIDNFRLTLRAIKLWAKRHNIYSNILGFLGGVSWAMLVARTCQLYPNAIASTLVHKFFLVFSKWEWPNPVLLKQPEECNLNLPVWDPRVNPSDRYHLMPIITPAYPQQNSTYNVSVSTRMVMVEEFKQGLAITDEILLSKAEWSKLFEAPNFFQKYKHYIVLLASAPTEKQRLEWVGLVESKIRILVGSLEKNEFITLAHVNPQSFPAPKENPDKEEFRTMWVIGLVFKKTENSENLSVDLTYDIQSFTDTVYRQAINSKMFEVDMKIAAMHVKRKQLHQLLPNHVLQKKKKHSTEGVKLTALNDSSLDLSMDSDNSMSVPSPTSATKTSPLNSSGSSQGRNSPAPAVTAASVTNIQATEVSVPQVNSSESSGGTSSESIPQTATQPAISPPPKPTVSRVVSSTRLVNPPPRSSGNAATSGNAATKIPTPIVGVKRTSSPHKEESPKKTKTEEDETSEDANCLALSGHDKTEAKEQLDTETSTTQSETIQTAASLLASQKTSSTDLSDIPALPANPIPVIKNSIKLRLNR
UniProt P07737, whole entry: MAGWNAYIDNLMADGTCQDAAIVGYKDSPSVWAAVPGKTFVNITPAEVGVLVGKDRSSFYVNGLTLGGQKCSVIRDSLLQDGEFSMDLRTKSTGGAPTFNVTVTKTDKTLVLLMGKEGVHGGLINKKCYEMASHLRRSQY
UniProt Q8IWE5: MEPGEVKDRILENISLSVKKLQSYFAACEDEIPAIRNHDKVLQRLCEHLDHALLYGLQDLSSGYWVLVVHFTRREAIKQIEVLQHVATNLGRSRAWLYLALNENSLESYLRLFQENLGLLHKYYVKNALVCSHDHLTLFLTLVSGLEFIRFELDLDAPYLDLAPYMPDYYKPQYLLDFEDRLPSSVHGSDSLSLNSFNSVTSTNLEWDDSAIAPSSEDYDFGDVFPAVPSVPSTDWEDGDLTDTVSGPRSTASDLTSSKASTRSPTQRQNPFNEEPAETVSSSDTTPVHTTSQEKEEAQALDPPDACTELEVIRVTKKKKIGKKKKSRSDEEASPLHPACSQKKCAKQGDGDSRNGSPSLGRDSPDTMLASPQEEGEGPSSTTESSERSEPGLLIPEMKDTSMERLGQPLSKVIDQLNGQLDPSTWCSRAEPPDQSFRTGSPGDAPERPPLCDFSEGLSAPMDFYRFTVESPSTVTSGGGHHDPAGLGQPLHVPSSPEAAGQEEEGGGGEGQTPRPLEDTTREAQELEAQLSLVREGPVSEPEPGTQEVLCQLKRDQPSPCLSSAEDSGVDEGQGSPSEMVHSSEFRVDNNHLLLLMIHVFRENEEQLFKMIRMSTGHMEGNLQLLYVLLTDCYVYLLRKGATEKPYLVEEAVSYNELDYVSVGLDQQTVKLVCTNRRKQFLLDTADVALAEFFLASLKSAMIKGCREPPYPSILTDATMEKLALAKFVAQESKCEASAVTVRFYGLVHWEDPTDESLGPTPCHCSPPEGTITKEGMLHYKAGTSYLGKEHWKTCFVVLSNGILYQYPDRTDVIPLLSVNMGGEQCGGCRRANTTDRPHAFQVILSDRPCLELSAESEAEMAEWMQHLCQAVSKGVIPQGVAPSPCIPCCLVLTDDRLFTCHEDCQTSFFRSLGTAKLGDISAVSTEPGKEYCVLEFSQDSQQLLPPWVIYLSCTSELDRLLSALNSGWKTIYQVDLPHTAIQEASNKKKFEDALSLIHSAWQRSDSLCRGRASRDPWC

Each target was assayed with COc1ccc(Cn2ccc3cc(C)c(C(=O)NO)cc32)cc1 (assay: dose-dependent thermal stabilisation call (2D-TPP, DLPTP, 10% FDR) (binary (1 = stabilised)); higher = stabilised by the compound). Details: system: HL-60 intact cells; concentration range 0.04-10 µM.
Method: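 2D thermal proteome profiling in intact HL-60 cells treated with BRD-3811 (0, 0.04, 0.29, 2, 10 uM) for 90 min at 37 C, then heated 3 min at one of 12 temperatures (42-63.9 C). Soluble protein was quantified by TMT10 MS. The value is the DLPTP call of the paper: dose-dependent thermal stabilisation over all temperatures at 10% FDR (F-test of a dose-response against a flat model); one experiment, one call per tested protein.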

Target | dose-dependent thermal stabilisation call
PFDN4 (UniProt Q9NQP4) | inactive: 0
PFDN6 (UniProt O15212) | inactive: 0
PHB2 (UniProt Q99623) | inactive: 0
PLRG1 (UniProt O43660) | inactive: 0
PCTK1 (UniProt Q00536) | inactive: 0
OXNAD1 (UniProt Q96HP4) | inactive: 0
PEX1 (UniProt O43933) | inactive: 0
PARP16 (UniProt Q8N5Y8) | inactive: 0
PDXP (UniProt Q96GD0) | inactive: 0
PARP14 (UniProt Q460N5) | inactive: 0
PHB (UniProt P35232) | inactive: 0
OSBPL2 (UniProt Q9H1P3) | inactive: 0
PDIA5 (UniProt Q14554) | inactive: 0
PICK1 (UniProt Q9NRD5) | inactive: 0
PIK3R4 (UniProt Q99570) | inactive: 0
PCBP2 (UniProt Q15366) | inactive: 0
PHGDH (UniProt O43175) | active: 1
PEX6 (UniProt Q13608) | inactive: 0

Another view of part of the listing above.
Target,dose-dependent thermal stabilisation call
PARP16 (UniProt Q8N5Y8),inactive: 0
PDIA5 (UniProt Q14554),inactive: 0
PHGDH (UniProt O43175),active: 1

Additional records:

Target | dose-dependent thermal stabilisation call
OGT (UniProt O15294) | inactive: 0
PAFAH1B3 (UniProt Q15102) | inactive: 0
PDCD6 (UniProt O75340) | inactive: 0
PDHA1 (UniProt P08559) | inactive: 0
PGK1 (UniProt P00558) | inactive: 0
PKN1 (UniProt Q16512) | inactive: 0
OSBPL6 (UniProt Q9BZF3) | inactive: 0
PEX5 (UniProt P50542) | inactive: 0
PDCD2L (UniProt Q9BRP1) | inactive: 0
PIK3CG (UniProt P48736) | inactive: 0
PHF5A (UniProt Q7RTV0) | inactive: 0
PAPOLA (UniProt P51003) | inactive: 0
PFN1 (UniProt P07737) | inactive: 0
PAIP1 (UniProt Q9H074) | inactive: 0
PGAP1 (UniProt Q75T13) | inactive: 0
PI4KB (UniProt Q9UBF8) | inactive: 0
PLEKHM2 (UniProt Q8IWE5) | inactive: 0
PGGT1B (UniProt P53609) | inactive: 0
